{"source": "the supplement of paper PMC3334620", "note": "The full ranking holds about 33,000 sequences; the median of “E-score (-0.5 to 0.5)” is about -0.0034, and the highest 2% start at about 0.25. Some of the results follow."}
{"target": "T1, Yap3 (UniProt P38749)", "T1 sequence": "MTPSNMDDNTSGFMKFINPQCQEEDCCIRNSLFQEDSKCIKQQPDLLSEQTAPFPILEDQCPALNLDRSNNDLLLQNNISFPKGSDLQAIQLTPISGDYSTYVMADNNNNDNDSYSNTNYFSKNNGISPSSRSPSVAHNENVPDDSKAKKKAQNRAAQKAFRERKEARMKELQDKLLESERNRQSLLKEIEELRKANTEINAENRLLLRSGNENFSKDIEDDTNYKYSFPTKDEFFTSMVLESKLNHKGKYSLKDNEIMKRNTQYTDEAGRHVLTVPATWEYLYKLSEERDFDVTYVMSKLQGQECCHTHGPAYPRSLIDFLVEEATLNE", "experiment": "PBM E-score (8-mer binding enrichment) (E-score (-0.5 to 0.5)); higher = stronger / more preferred TF binding", "settings": "protein concentration: 100 nM; construct: GST-full length", "procedure": "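Universal 'all 10-mer' protein binding microarrays (Agilent AMADID 015681) probed with GST-tagged S. cerevisiae TFs (full-length or DBD) made by in vitro transcription/translation (PURExpress), about 100-200 nM. Bound TF was detected with fluorescent anti-GST. Each ungapped 8-mer (which stands for itself and its reverse complement) is scored by the PBM enrichment score (E-score), a modified Wilcoxon-Mann-Whitney statistic from -0.5 to +0.5, computed with the Universal PBM Analysis Suite. Scale: above 0.35 generally sequence-specific binding.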"}
{"sequence": "CGAACTGC", "PBM E-score": 0.0173}
{"sequence": "TGTCGAAA", "PBM E-score": -0.0162}
{"sequence": "CTGGTGAC", "PBM E-score": -0.0814}
{"sequence": "GGAAAGCA", "PBM E-score": 0.018}
{"sequence": "CAATAGTG", "PBM E-score": 0.0307}
{"sequence": "GGTGGAGA", "PBM E-score": -0.223}
{"sequence": "CAGATTGA", "PBM E-score": -0.1}
{"sequence": "CTATGGCC", "PBM E-score": -0.161}
{"sequence": "CCTGCCGA", "PBM E-score": -0.131}
{"sequence": "GTACACTA", "PBM E-score": 0.101}
{"sequence": "TCCATAGA", "PBM E-score": -0.0915}
{"sequence": "CCAACTCG", "PBM E-score": -0.0369}
{"sequence": "ACGGGTTA", "PBM E-score": -0.236}
{"sequence": "ATGCCAAG", "PBM E-score": -0.00431}
{"sequence": "CCCGAGGC", "PBM E-score": -0.274}
{"sequence": "TGGATAAA", "PBM E-score": 0.0462}
{"sequence": "ACGTATCC", "PBM E-score": -0.166}
{"sequence": "ACACACCC", "PBM E-score": 0.05}
{"sequence": "CGTTGTCC", "PBM E-score": 0.108}
{"sequence": "AGCACGGA", "PBM E-score": -0.0134}
{"sequence": "CCCTGGAA", "PBM E-score": -0.221}
{"sequence": "TCACAAAA", "PBM E-score": 0.206}
{"sequence": "CTTGTGTC", "PBM E-score": 0.00956}
{"sequence": "CCCGGGAC", "PBM E-score": -0.28}
{"sequence": "AGAAGACC", "PBM E-score": -0.0956}
{"sequence": "GATTAAAA", "PBM E-score": 0.192}
{"sequence": "CACATGGC", "PBM E-score": -0.162}
{"sequence": "CATACCAC", "PBM E-score": -0.0411}
{"sequence": "CCGCGTGC", "PBM E-score": -0.0737}
{"sequence": "CGTAACTC", "PBM E-score": -0.0505}
{"sequence": "AGGTTCAT", "PBM E-score": -0.0863}
{"sequence": "AGCTATCC", "PBM E-score": -0.233}
{"sequence": "TAGTGTGA", "PBM E-score": -0.0146}
{"sequence": "AGTCGCGA", "PBM E-score": 0.272}
{"sequence": "AAGTTACA", "PBM E-score": 0.199}
{"sequence": "ACAAATGG", "PBM E-score": 0.0263}
{"sequence": "CTGTACTA", "PBM E-score": 0.191}
{"sequence": "CTACACGC", "PBM E-score": -0.195}
{"sequence": "CTTTCTAA", "PBM E-score": 0.149}
{"sequence": "ATACCCCA", "PBM E-score": 0.0688}
{"sequence": "ACTTACTA", "PBM E-score": 0.169}
{"sequence": "CGACTCAG", "PBM E-score": -0.0644}
{"sequence": "ATAATCTG", "PBM E-score": 0.0994}
{"sequence": "AGGATCAA", "PBM E-score": 0.138}
{"sequence": "ACCCCACC", "PBM E-score": 0.00566}
{"sequence": "CAAGATCA", "PBM E-score": 0.0239}
{"sequence": "AAATCCCT", "PBM E-score": -0.0153}
{"sequence": "AATACGAC", "PBM E-score": -0.0154}
{"sequence": "CGAGAGAG", "PBM E-score": -0.0823}
{"sequence": "CGAACGAG", "PBM E-score": -0.113}
{"sequence": "GGCGGCCC", "PBM E-score": -0.421}
{"sequence": "AACATTCA", "PBM E-score": -0.00192}
{"sequence": "GTCGTTGA", "PBM E-score": -0.0267}
{"sequence": "CCATTAGG", "PBM E-score": -0.292}
{"sequence": "GGCCATAA", "PBM E-score": 0.0838}
{"sequence": "AATACATC", "PBM E-score": 0.119}
{"sequence": "CCGGATAC", "PBM E-score": -0.0597}
{"sequence": "AGCGGCTC", "PBM E-score": -0.0449}
{"sequence": "AATCTGGA", "PBM E-score": -0.133}
{"sequence": "CCTTAAAC", "PBM E-score": -0.0575}
{"sequence": "CGGACCGA", "PBM E-score": 0.00351}
{"sequence": "CATTATTA", "PBM E-score": 0.334}
{"sequence": "ACCTCACA", "PBM E-score": -0.0389}
{"sequence": "CACCGCGG", "PBM E-score": 0.0356}
{"sequence": "ACCTCGAG", "PBM E-score": 0.217}
{"sequence": "CAGCCCCA", "PBM E-score": -0.213}
{"sequence": "CCTATGAA", "PBM E-score": 0.0291}
{"sequence": "GGATACAA", "PBM E-score": 0.106}
{"sequence": "GCAAGGTA", "PBM E-score": 0.0372}
{"sequence": "ATTGTGAA", "PBM E-score": 0.0946}
{"sequence": "CAAAGGCG", "PBM E-score": -0.0428}
{"sequence": "TGGGGACA", "PBM E-score": -0.0974}
{"sequence": "GAGTCTCA", "PBM E-score": -0.0909}
{"sequence": "AGACATTA", "PBM E-score": 0.0629}
{"sequence": "CGCGAACC", "PBM E-score": -0.0735}
{"sequence": "AAGTTTTC", "PBM E-score": 0.109}
{"sequence": "CGACAAAG", "PBM E-score": 0.118}
{"sequence": "ATTCCTGC", "PBM E-score": 0.0399}
{"sequence": "CTGTTCTC", "PBM E-score": -0.0113}
{"sequence": "GCAAACAC", "PBM E-score": -0.0377}
{"sequence": "CCCTCGGC", "PBM E-score": -0.293}
{"sequence": "GAGTCTCC", "PBM E-score": -0.135}
{"sequence": "CAAATCTA", "PBM E-score": 0.199}
{"sequence": "CAGAACGC", "PBM E-score": -0.063}
{"sequence": "GAACCCGA", "PBM E-score": -0.121}
{"sequence": "AAGCAGCG", "PBM E-score": -0.0118}
